Test results published in the supplement of paper PMC10849652.
The other results are listed elsewhere or left out.

Amino acid sequences for entries named in this document (tags omitted). A change or cut given only in a name is not applied to a line headed by its entry.
UniProt P15407: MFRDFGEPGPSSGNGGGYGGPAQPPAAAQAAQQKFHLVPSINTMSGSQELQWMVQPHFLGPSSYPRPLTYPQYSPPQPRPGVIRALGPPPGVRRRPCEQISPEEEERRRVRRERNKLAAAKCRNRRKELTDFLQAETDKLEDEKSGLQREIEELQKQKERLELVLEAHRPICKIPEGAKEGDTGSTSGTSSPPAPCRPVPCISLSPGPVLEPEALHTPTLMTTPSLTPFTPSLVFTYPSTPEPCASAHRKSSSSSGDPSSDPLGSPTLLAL
UniProt P85037: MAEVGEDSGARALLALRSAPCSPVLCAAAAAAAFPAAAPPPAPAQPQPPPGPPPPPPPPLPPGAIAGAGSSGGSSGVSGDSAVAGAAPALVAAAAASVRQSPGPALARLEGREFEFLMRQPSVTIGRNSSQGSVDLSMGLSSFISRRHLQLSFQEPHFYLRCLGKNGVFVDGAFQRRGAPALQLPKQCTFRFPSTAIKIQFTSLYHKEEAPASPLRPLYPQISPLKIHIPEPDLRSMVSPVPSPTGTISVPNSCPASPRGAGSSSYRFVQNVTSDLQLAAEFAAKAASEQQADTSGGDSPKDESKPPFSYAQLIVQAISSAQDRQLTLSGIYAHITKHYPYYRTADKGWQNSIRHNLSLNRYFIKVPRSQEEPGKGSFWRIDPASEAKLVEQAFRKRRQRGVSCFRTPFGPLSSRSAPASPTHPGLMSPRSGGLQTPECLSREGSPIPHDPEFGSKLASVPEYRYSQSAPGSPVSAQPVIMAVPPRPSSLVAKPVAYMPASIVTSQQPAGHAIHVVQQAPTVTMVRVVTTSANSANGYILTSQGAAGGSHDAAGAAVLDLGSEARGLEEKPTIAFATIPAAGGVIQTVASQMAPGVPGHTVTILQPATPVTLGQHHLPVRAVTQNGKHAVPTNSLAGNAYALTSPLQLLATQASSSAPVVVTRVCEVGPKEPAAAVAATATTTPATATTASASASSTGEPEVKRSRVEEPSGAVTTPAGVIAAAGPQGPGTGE
UniProt Q8NCW6: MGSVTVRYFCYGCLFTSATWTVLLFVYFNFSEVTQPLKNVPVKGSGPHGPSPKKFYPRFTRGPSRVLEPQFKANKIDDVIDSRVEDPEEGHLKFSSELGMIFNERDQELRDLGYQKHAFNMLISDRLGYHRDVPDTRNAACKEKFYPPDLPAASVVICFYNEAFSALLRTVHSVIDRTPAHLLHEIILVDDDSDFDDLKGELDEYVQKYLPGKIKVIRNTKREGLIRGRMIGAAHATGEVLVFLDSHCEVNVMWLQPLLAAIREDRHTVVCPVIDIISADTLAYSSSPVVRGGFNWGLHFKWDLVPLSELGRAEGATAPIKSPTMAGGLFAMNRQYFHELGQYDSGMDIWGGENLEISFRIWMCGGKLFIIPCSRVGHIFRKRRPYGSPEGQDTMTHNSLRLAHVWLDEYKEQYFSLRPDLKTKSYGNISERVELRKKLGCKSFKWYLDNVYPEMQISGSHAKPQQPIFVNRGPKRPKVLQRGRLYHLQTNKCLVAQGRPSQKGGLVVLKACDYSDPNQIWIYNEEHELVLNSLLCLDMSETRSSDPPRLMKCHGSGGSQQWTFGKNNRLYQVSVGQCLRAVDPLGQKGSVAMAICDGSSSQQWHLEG
UniProt Q9C0B1, whole entry, looked up: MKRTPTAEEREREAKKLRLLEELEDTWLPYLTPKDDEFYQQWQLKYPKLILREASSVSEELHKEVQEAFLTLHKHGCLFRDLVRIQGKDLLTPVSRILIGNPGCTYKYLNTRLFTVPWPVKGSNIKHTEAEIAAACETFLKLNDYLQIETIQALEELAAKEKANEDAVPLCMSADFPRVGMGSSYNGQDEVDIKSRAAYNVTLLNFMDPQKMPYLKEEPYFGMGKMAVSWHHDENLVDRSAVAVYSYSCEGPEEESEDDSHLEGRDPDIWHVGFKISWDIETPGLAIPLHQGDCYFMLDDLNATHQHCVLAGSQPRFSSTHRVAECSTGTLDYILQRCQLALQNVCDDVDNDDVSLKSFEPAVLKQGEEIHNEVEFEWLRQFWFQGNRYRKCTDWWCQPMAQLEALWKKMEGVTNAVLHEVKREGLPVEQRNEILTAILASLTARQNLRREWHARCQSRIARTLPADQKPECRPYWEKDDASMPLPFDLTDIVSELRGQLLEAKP
UniProt P48507: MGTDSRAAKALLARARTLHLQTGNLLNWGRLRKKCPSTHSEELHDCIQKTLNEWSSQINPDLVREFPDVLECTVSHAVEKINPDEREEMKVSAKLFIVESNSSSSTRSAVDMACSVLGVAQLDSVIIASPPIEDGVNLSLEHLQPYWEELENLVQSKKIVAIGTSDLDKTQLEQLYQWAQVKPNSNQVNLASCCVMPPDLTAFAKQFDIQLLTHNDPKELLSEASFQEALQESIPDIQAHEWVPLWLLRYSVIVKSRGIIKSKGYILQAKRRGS
UniProt P60520, whole entry, looked up: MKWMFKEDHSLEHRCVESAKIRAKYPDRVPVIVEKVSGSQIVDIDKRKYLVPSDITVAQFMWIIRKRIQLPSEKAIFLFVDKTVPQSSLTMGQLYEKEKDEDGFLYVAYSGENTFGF
UniProt P0CL80: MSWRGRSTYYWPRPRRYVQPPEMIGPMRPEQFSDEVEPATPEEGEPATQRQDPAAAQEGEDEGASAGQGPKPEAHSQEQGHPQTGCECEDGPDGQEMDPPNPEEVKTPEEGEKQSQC
UniProt Q9BYC5: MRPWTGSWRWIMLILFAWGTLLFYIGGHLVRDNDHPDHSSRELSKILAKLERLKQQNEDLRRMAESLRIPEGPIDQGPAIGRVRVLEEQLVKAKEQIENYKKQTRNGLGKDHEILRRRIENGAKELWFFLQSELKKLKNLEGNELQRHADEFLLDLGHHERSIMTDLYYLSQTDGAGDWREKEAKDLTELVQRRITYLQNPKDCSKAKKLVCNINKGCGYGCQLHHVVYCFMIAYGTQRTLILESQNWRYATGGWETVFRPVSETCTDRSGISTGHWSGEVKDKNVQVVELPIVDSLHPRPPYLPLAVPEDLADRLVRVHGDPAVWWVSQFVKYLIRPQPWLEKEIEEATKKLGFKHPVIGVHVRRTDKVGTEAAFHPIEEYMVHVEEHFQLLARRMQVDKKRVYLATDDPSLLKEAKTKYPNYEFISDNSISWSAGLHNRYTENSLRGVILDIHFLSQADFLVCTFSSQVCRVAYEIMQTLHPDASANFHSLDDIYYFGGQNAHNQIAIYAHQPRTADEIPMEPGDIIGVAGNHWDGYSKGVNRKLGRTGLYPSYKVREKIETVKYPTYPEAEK
UniProt P51114, whole entry, looked up: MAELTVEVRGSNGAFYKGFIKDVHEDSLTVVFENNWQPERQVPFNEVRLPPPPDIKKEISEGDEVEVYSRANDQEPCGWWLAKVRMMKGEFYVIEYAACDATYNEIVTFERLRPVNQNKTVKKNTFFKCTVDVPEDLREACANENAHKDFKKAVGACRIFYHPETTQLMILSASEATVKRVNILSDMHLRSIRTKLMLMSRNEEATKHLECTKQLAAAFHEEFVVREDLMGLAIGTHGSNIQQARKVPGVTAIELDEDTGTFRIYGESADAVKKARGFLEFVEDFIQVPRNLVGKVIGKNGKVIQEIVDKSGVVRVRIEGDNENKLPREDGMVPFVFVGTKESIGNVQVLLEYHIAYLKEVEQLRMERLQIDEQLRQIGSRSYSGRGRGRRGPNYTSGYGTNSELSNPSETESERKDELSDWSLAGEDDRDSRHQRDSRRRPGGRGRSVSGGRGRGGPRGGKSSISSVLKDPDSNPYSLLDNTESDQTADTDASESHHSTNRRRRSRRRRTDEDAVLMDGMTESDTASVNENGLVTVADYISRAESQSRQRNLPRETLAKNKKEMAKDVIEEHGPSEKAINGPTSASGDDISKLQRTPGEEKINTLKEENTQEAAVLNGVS
UniProt P38435: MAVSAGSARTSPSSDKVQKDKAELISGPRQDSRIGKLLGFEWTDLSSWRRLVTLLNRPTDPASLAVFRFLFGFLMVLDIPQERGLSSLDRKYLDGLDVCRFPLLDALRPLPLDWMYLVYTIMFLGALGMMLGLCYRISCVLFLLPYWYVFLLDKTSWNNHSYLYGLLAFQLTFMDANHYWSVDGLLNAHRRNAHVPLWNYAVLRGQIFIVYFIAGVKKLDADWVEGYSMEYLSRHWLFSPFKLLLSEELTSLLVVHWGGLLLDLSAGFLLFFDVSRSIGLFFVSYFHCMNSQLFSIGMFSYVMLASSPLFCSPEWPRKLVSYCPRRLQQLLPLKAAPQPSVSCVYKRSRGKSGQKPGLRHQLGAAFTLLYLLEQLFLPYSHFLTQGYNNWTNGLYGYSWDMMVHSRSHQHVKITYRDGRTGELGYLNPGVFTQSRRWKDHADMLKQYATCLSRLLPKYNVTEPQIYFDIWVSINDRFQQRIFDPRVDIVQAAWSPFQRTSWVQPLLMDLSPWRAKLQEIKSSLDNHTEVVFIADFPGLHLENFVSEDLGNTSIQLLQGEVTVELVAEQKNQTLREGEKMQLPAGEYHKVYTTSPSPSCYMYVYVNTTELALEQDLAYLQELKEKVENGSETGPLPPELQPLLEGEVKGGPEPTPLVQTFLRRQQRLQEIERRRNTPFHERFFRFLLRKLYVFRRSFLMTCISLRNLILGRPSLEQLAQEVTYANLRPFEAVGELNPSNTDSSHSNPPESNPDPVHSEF
UniProt Q10471: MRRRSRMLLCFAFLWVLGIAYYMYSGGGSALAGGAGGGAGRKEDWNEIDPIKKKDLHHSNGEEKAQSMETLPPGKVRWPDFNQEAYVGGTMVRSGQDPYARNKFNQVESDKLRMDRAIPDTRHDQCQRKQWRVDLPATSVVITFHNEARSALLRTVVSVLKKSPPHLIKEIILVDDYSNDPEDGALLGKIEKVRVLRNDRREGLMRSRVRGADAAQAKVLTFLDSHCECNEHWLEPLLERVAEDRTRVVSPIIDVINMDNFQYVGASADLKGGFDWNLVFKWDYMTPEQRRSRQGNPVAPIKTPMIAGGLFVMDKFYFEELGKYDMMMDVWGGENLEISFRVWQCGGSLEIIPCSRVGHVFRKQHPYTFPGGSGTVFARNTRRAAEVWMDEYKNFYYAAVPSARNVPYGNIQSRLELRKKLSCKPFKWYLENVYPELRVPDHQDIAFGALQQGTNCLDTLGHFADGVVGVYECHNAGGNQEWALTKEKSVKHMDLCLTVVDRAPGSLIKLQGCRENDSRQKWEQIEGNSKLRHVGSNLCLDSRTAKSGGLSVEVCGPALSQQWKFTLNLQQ
UniProt Q9UQC2, whole entry, looked up: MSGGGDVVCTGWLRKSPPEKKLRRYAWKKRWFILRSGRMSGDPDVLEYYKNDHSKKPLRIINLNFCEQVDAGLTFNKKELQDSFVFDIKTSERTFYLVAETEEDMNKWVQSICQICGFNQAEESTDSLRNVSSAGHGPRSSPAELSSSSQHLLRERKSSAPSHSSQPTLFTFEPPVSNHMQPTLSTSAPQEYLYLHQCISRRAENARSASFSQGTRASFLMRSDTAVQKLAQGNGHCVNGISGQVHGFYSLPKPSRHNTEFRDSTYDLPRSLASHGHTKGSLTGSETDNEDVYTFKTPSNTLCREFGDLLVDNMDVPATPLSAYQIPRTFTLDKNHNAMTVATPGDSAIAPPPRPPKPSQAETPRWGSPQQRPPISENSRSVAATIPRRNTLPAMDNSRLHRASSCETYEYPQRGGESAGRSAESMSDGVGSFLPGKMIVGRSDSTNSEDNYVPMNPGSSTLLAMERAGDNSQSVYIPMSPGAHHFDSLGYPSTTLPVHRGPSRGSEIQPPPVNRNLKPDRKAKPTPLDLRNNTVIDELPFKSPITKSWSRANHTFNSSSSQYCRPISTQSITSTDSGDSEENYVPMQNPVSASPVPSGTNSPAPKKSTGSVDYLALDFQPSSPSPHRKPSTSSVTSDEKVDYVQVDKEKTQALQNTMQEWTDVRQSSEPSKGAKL
UniProt Q13480: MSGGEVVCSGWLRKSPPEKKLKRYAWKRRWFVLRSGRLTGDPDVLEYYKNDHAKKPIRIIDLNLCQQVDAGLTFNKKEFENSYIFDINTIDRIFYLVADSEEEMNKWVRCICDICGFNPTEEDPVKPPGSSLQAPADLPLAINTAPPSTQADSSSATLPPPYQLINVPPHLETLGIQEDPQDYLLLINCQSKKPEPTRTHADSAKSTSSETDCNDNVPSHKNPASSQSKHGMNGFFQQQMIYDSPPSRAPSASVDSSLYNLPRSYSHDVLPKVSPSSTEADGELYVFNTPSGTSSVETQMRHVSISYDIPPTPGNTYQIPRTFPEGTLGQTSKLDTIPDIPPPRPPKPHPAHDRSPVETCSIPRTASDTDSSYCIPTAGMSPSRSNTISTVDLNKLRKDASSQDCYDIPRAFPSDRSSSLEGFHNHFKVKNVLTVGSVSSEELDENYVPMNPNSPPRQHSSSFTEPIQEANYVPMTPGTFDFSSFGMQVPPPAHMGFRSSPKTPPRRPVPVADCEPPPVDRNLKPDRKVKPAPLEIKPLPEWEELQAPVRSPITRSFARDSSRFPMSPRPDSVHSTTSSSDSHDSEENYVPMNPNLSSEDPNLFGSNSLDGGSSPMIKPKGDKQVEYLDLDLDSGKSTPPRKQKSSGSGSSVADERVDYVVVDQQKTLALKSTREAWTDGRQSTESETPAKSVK

What was measured:
Experiment in all cases: log2 fold change, soluble protein after heating vs DMSO (PISA); higher = thermal stabilisation; K562 cells, 10 uM, 30 min; active = over 0.2 and 3.5 SD of the protein, either way, in both replicates (recomputed)
[1] = compound: NC(=O)Nc1cc(-c2cccc(F)c2)sc1C(=O)N[C@H]1CCCNC1
Method in brief: (§1)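 Soluble protein was quantified by TMTpro 16plex LC-MS/MS after channel sums were equalised. It was obtained as the supernatant after 21,000xg for 90 min from pooled aliquots of K562 cells (2×10^6 cells/mL, 10 μM compound, 30 min) heated for 3 min across 48°C-58°C and extracted in PBS with 0.5% NP-40 at 4°C. Thermal stability values are relative to control samples and come from duplicates. They are given as log2 fold changes.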

[2] = compound: NC(=O)c1cnc(N[C@@H]2CCCC[C@@H]2N)nc1Nc1cccc(-n2nccn2)c1
Method in brief: as §1

[3] = compound: NC1(c2ccc(-c3nc4ccn5c(=O)[nH]nc5c4cc3-c3ccccc3)cc2)CCC1
Method in brief: as §1

[4] = compound: NCC(=O)Nc1ccc(-n2nc(C(F)(F)F)cc2-c2ccc3c(ccc4ccccc43)c2)cc1
Method in brief: as §1

[5] = compound: Nc1ccccc1NC(=O)c1ccc(CNC(=O)OCc2cccnc2)cc1 [entinostat]
Method in brief: as §1

[6] = compound: O=C(CCCCCCC(=O)Nc1ccccc1)NO [vorinostat]
Method in brief: as §1

[7] = compound: O=C(CCCCCCNC(=O)c1cnc(N(c2ccccc2)c2ccccc2Cl)nc1)NO [citarinostat]
Method in brief: as §1

[8] = compound: O=C(O)c1ccc2c(c1)nc(Nc1cccc(Cl)c1)c1ccncc12 [silmitasertib]
Method in brief: as §1

[9] = compound: O=C1NC(=O)C(c2cnc3ccccn23)=C1c1cn2c3c(cc(F)cc13)CN(C(=O)N1CCCCC1)CC2
Method in brief: as §1

[10] = compound: c1cc(OCCN2CCCCC2)cc(-c2n[nH]c3ccc(-c4nnc[nH]4)cc23)c1
Method in brief: as §1

| Target | log2 fold change [1] | log2 fold change [2] | log2 fold change [3] | log2 fold change [4] | log2 fold change [5] | log2 fold change [6] | log2 fold change [7] | log2 fold change [8] | log2 fold change [9] | log2 fold change [10] |
| --- | --- | --- | --- | --- | --- | --- | --- | --- | --- | --- |
| GGA3 (UniProt Q9NZ52) | inactive: -0.103 | inactive: -0.025 | inactive: 0.013 | inactive: -0.152 | inactive: -0.016 | inactive: 0.014 | inactive: 0.007 | inactive: 0.058 | inactive: 0.002 | inactive: -0.105 |
| GCN1 (UniProt Q92616) | inactive: 0.202 | inactive: -0.001 | inactive: 0.237 | inactive: 0.095 | inactive: 0.092 | inactive: 0.015 | inactive: -0.046 | inactive: 0.282 | inactive: 0.451 | inactive: -0.193 |
| FOSL1 (UniProt P15407) | inactive: 0.021 | inactive: -0.114 | inactive: 0.017 | inactive: -0.074 | inactive: -0.139 | inactive: -0.153 | inactive: -0.142 | inactive: 0.007 | inactive: 0.006 | inactive: -0.064 |
| FTL (UniProt P02792) | inactive: 0.109 | inactive: -0.11 | inactive: 0.036 | inactive: 0.011 | inactive: -0.02 | inactive: 0 | inactive: 0.14 | inactive: 0.069 | inactive: 0.033 | inactive: -0.096 |
| GALNT5 (UniProt Q7Z7M9) | inactive: -0.056 | inactive: 0.008 | inactive: -0.009 | inactive: -0.019 | inactive: -0.014 | inactive: -0.071 | inactive: 0.009 | inactive: -0.003 | inactive: -0.016 | inactive: -0.018 |
| GEMIN2 (UniProt O14893) | inactive: -0.05 | inactive: -0.015 | inactive: 0.017 | inactive: -0.116 | inactive: -0.055 | inactive: 0.102 | inactive: -0.103 | inactive: 0.038 | active: 0.375 | inactive: 0.073 |
| GADD45GIP1 (UniProt Q8TAE8) | inactive: -0.007 | inactive: 0.031 | inactive: 0.051 | inactive: 0.077 | inactive: 0.054 | inactive: -0.002 | inactive: -0.025 | inactive: -0.012 | inactive: 0.042 | inactive: -0.063 |
| FOXK1 (UniProt P85037) | inactive: 0.497 | inactive: 0.201 | inactive: 0.38 | inactive: 0.096 | inactive: 0 | inactive: -0.15 | inactive: 0.023 | inactive: 0.512 | active: -1.33 | inactive: -0.031 |
| GAPVD1 isoform 6 (UniProt Q14C86) | inactive: 0.009 | inactive: -0.077 | inactive: -0.139 | inactive: -0.073 | inactive: 0.049 | inactive: 0.063 | inactive: 0.087 | inactive: 0.124 | inactive: 0.003 | inactive: -0.048 |
| GALNT11 (UniProt Q8NCW6) | inactive: 0.001 | inactive: -0.119 | inactive: -0.224 | inactive: -0.023 | inactive: -0.012 | inactive: 0.01 | inactive: 0.079 | inactive: 0.027 | inactive: -0.021 | inactive: 0.002 |
| FTO (UniProt Q9C0B1) | inactive: -0.022 | inactive: -0.012 | inactive: -0.037 | inactive: 0.045 | inactive: -0.05 | inactive: 0.013 | inactive: 0.059 | inactive: 0.004 | inactive: -0.014 | inactive: -0.029 |
| GALK1 isoform 2 (UniProt P51570) | active: 0.357 | inactive: 0.066 | inactive: -0.087 | inactive: 0.141 | inactive: 0.171 | inactive: 0.094 | inactive: 0.111 | inactive: -0.063 | inactive: 0.049 | inactive: 0.11 |
| G3BP2 (UniProt Q9UN86) | inactive: 0.067 | inactive: 0.065 | inactive: 0.296 | inactive: 0.002 | inactive: -0.016 | inactive: -0.002 | inactive: -0.123 | inactive: 0.152 | inactive: 0.288 | inactive: -0.222 |
| GBF1 (UniProt Q92538) | inactive: -0.026 | inactive: -0.012 | inactive: -0.122 | inactive: -0.058 | inactive: 0.053 | inactive: 0.144 | inactive: 0.124 | inactive: -0.018 | inactive: -0.001 | inactive: -0.023 |
| GGH (UniProt Q92820) | inactive: -0.006 | inactive: 0.002 | inactive: -0.02 | inactive: 0.038 | inactive: -0.011 | inactive: 0.008 | inactive: 0.029 | inactive: -0.008 | inactive: -0.008 | inactive: 0.047 |
| GCLM (UniProt P48507) | inactive: -0.028 | inactive: 0.073 | inactive: -0.088 | inactive: -0.075 | inactive: 0.093 | inactive: 0.051 | inactive: 0.074 | inactive: 0.077 | inactive: -0.022 | inactive: -0.004 |
| GABARAPL2 (UniProt P60520) | inactive: -0.036 | inactive: -0.088 | inactive: -0.145 | inactive: -0.079 | inactive: -0.011 | inactive: 0.063 | inactive: 0.041 | inactive: -0.049 | inactive: -0.048 | inactive: 0.015 |
| GAGE12F (UniProt P0CL80) | inactive: 0.029 | inactive: -0.013 | inactive: 0.083 | inactive: -0.059 | inactive: 0.031 | inactive: 0.024 | inactive: 0 | inactive: 0.01 | inactive: 0.021 | inactive: -0.08 |
| GARS1 (UniProt H7C443) | inactive: -0.347 | inactive: -0.089 | inactive: 0.008 | inactive: -0.105 | inactive: -0.211 | inactive: -0.229 | inactive: -0.16 | inactive: -0.02 | inactive: -0.274 | inactive: -0.037 |
| FUT8 (UniProt Q9BYC5) | inactive: -0.022 | inactive: 0.094 | inactive: -0.107 | inactive: -0.014 | inactive: 0.042 | inactive: -0.001 | inactive: 0.108 | inactive: 0.013 | inactive: -0.146 | inactive: 0.027 |
| FUNDC2 (UniProt Q9BWH2) | inactive: -0.029 | inactive: -0.01 | inactive: 0.001 | inactive: -0.007 | inactive: -0.025 | inactive: -0.022 | inactive: -0.032 | inactive: -0.01 | inactive: -0.025 | inactive: -0.035 |
| FXR1 (UniProt P51114) | inactive: 0.03 | inactive: 0.015 | inactive: 0.273 | inactive: -0.085 | inactive: 0.025 | inactive: 0.087 | inactive: -0.033 | inactive: 0.145 | inactive: 0.291 | inactive: -0.127 |
| GGCX (UniProt P38435) | inactive: 0.091 | inactive: -0.002 | inactive: -0.044 | inactive: -0.069 | inactive: 0.283 | inactive: 0.112 | inactive: 0.019 | inactive: 0.184 | inactive: -0.072 | inactive: -0.119 |
| GALNT2 (UniProt Q10471) | inactive: 0 | inactive: -0.042 | inactive: -0.125 | inactive: 0.002 | inactive: -0.018 | inactive: 0.033 | inactive: 0.064 | inactive: -0.021 | inactive: -0.034 | inactive: 0.005 |
| FOXO3 (UniProt O43524) | inactive: -0.395 | inactive: -0.089 | inactive: -0.025 | inactive: -0.072 | inactive: -0.063 | inactive: 0.222 | inactive: 0.002 | inactive: -0.136 | inactive: -0.046 | inactive: 0.035 |
| GAB2 (UniProt Q9UQC2) | inactive: -0.087 | inactive: -0.268 | inactive: -0.081 | inactive: 0.018 | inactive: 0.127 | inactive: 0.151 | inactive: 0.182 | inactive: -0.175 | inactive: -0.095 | inactive: -0.21 |
| GCFC2 (UniProt P16383) | inactive: 0.07 | inactive: 0.071 | inactive: -0.045 | inactive: 0.099 | inactive: -0.002 | inactive: 0.136 | inactive: -0.004 | inactive: 0.04 | inactive: 0.017 | inactive: -0.016 |
| GHITM (UniProt Q9H3K2) | inactive: 0.013 | inactive: -0.034 | inactive: -0.06 | inactive: 0.026 | inactive: -0.001 | inactive: 0.011 | inactive: 0.039 | inactive: 0.011 | inactive: 0.004 | inactive: -0.025 |
| GHDC (UniProt Q8N2G8) | inactive: -0.021 | inactive: 0.013 | inactive: 0.005 | inactive: -0.018 | inactive: 0.004 | inactive: -0.023 | inactive: 0.045 | inactive: 0.001 | inactive: -0.045 | inactive: -0.03 |
| GAB1 isoform 2 (UniProt Q13480) | inactive: 0.05 | inactive: -0.161 | inactive: -0.185 | inactive: 0.021 | inactive: -0.025 | inactive: 0.009 | inactive: 0.073 | inactive: -0.068 | inactive: 0.089 | inactive: -0.121 |

Record cards, from the list above. Order of values: log2 fold change [1]	log2 fold change [2]	log2 fold change [3]	log2 fold change [4]	log2 fold change [5]	log2 fold change [6]	log2 fold change [7]	log2 fold change [8]	log2 fold change [9]	log2 fold change [10]
GARS1 (UniProt H7C443) is listed with inactive: -0.347	inactive: -0.089	inactive: 0.008	inactive: -0.105	inactive: -0.211	inactive: -0.229	inactive: -0.16	inactive: -0.02	inactive: -0.274	inactive: -0.037
GADD45GIP1 (UniProt Q8TAE8) is listed with inactive: -0.007	inactive: 0.031	inactive: 0.051	inactive: 0.077	inactive: 0.054	inactive: -0.002	inactive: -0.025	inactive: -0.012	inactive: 0.042	inactive: -0.063
